Measured data: PubChem BioAssay AID743121 (NCATS, 2013)
Test: 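Partners whose loss is lethal together with topoisomerase I blockade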 (primary screen). System: MDA-MB-231 cells, a human breast cancer line. Knock-down reagent: single siRNA against human genes, 20 nM siRNA (0.8 pmol per well). Duration: 120 h (drug added 48 h after transfection, read 72 h later). Challenge: camptothecin 20 nM (about EC30) for 72 h; vehicle 0.1% DMSO in parallel plates. Measurement: 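CellTiter-Glo ATP signal, scaled to control siRNA as percent viability; sensitisation given as log2 of untreated divided by camptothecin-treated viability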. Scale: log2 vehicle/camptothecin viability: higher = stronger sensitisation to camptothecin. Hit rule: 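Each gene scored by redundant siRNA activity (RSA) over its individual siRNA ratios; a gene is called active at p < 0.001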.
Here is an unselected part of about 26,000 reagents. Of all reagents, 167 (0.63%) got an active call. 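Calls are per gene from RSA p-values that are not deposited; an individual active-marked siRNA can sensitise only weakly.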 The numbers tell different reagents against one gene apart. Further read-outs or replicates are left out here.

log2 vehicle/camptothecin viability, by gene symbol and reagent
USP45 (ubiquitin specific peptidase 45): #1 0.0161 inactive; #2 -0.00783 inactive; #3 -0.314 inactive; #4 -0.0878 inactive; #5 0.238 inactive; #6 -0.907 inactive
MAP3K7 (mitogen-activated protein kinase kinase kinase 7): #1 2.98 active; #2 0.368 active; #3 1.14 active; #4 1.38 active
NOTCH1 (notch receptor 1): #1 -0.0104 inactive; #2 -0.436 inactive; #3 -0.137 inactive; #4 -0.143 inactive
KIF2A (kinesin family member 2A): #1 -0.146 inactive; #2 -0.211 inactive; #3 -0.103 inactive; #4 0.0191 inactive

Reformatted: results already given.
gene symbol	reagent	log2 vehicle/camptothecin viability	activity call
NOTCH1 (notch receptor 1)	4	-0.143	inactive
KIF2A (kinesin family member 2A)	1	-0.146	inactive
KIF2A (kinesin family member 2A)	2	-0.211	inactive
KIF2A (kinesin family member 2A)	3	-0.103	inactive

The listing continues:
log2 vehicle/camptothecin viability, by gene symbol and reagent
PSMA7 (proteasome 20S subunit alpha 7): #1 -0.379 inactive; #2 -0.19 inactive; #3 -0.219 inactive; #4 -0.644 inactive
AKAP3 (A-kinase anchoring protein 3): #1 -0.23 inactive; #2 -0.2 inactive; #3 -0.406 inactive; #4 0.725 inactive
CDK5R2 (cyclin dependent kinase 5 regulatory subunit 2): #1 0.359 inactive; #2 -0.322 inactive; #3 -0.274 inactive; #4 -0.869 inactive
GTSE1 (G2 and S-phase expressed 1): #1 -0.49 inactive; #2 -0.504 inactive; #3 -0.421 inactive
PHF7 (PHD finger protein 7): #1 -0.167 inactive; #2 -0.668 inactive; #3 0.057 inactive; #4 0.405 inactive
RELB (RELB proto-oncogene, NF-kB subunit): #1 -0.258 inactive; #2 0.211 inactive; #3 -0.239 inactive; #4 0.146 inactive
PARD6A (par-6 family cell polarity regulator alpha): #1 -0.258 inactive; #2 -0.123 inactive; #3 0.0562 inactive; #4 -0.227 inactive
BET1 (Bet1 golgi vesicular membrane trafficking protein): #1 -0.231 inactive; #2 0.413 inactive; #3 -0.2 inactive; #4 -0.741 inactive
